# Screening data, single-dose tests

The values are deposited in ChEMBL (CHEMBL3988442, “University of Dundee, Small-Polar-MMV Screening Library” (2021)).

T. brucei: 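Whole-parasite assay of Trypanosoma brucei over 72 hours; the read-out is not stated. Compounds at 30 µM. The record gives no direction; compounds that gave an IC50 in retests scored well above the rest, so higher reads as stronger inhibition. Values scatter widely below zero; nearly all retest evidence comes from the higher of the two concentrations used. About 64,000 compounds were tested under these conditions; 1.5% (about 940) showed 50% or more at least once.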
Leishmania in macrophages: 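Cell assay of Leishmania donovani living inside macrophages; the read-out is not stated. Concentration: 30 µM. Higher reads as stronger inhibition (inferred: compounds with an IC50 in retests scored well above the rest). Of about 69,000 compounds tested this way, about 1,000 (1.5%) reached 50% or more in at least one test.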
Toxoplasma: 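Assay of Toxoplasma gondii numbers, read through their beta-galactosidase reporter with a colour substrate. Compounds at 10 µM. Higher reads as fewer parasites (inferred from which compounds were picked for retests). About 67,000 compounds were tested under these conditions; 0.38% (about 260) showed 50% or more at least once.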

Each number is a percent effect as filed.
How 0% and 100% were set is not recorded. Most values in the screen are low, and negative values occur.
The compounds are a random part of those screened.
Two or more numbers in one place are separate tests of the same structure; such repeats can differ widely.

{"compound": "OC1(Cn2ccc3ncccc32)CCN(Cc2cccnc2)CC1", "T. brucei": 3.092, "Leishmania in macrophages": 0.7815, "Toxoplasma": -13.13}
{"compound": "O[C@H]1COCCN(Cc2cccc3c2OCO3)C1", "T. brucei": -9.091, "Leishmania in macrophages": 20.07, "Toxoplasma": -7.462}
{"compound": "Cc1nc(-c2ccccc2C(=O)O)cc(C2CCN(C(C)C)C2)n1", "stereo": "configuration not stated", "T. brucei": -21.98, "Leishmania in macrophages": "20.47 and 2.845", "Toxoplasma": 11.67}
{"compound": "COc1ncccc1-c1nc(-c2ccccn2)nn1C1CCN(C)CC1", "T. brucei": -30.32, "Leishmania in macrophages": 22.44, "Toxoplasma": 11.89}
{"compound": "c1cc(-c2c[nH]c([C@@H]3COCCN3C3CCOCC3)n2)ccn1", "T. brucei": -9.018, "Leishmania in macrophages": 6.872, "Toxoplasma": -6.99}
{"compound": "CNC(=O)c1ncn2c1CN(CCC(C)C)S(=O)(=O)c1ccccc1-2", "T. brucei": -13.51, "Leishmania in macrophages": 54.17, "Toxoplasma": 6.12}
{"compound": "Cc1cnn(CC2CN(CC(=O)Nc3nncs3)CCO2)c1", "stereo": "configuration not stated", "Leishmania in macrophages": 9.901, "Toxoplasma": 1.505}
{"compound": "COc1ccc2c(CN3CCCN(Cc4ccncc4)CC3)n[nH]c2c1", "T. brucei": -45.02, "Leishmania in macrophages": 5.104, "Toxoplasma": -0.9174}
{"compound": "CCc1ccc(C(=O)NCCNc2ncccn2)cc1", "T. brucei": -26.95, "Leishmania in macrophages": 7.786, "Toxoplasma": 8.056}
{"compound": "CCCN(C)S(=O)(=O)NC(=O)c1ccc(CC)o1", "T. brucei": -41.79, "Leishmania in macrophages": -15.29, "Toxoplasma": 16.28}
{"compound": "O=C(CCNCc1cccc(O)c1)N1CCc2sccc2C1", "T. brucei": -11.37, "Leishmania in macrophages": 0.6849, "Toxoplasma": -7.1}
{"compound": "O=C(c1cnc(NCc2cccnc2)c(Cl)c1)N1CCCCC1", "T. brucei": 2.044, "Leishmania in macrophages": 6.534, "Toxoplasma": -6.662}
{"compound": "COC[C@@H]1CCC[C@@]12CN(C(=O)C1CCOCC1)CCO2", "T. brucei": 0.8856, "Leishmania in macrophages": 11.33, "Toxoplasma": 1.742}
{"compound": "Cc1ccc(C(=O)N2CCCC(n3cccn3)C2)cc1S(C)(=O)=O", "stereo": "configuration not stated", "T. brucei": 0.461, "Leishmania in macrophages": 17.73, "Toxoplasma": -50.63}
{"compound": "CCOCC1CC2(CCN(C(=O)c3ncccn3)CC2)CO1", "stereo": "configuration not stated", "T. brucei": 37.65, "Leishmania in macrophages": 25.93, "Toxoplasma": -0.5351}
{"compound": "Cc1nc(N2CCC3(CCCN(CCO)C3=O)C2)c2sccc2n1", "stereo": "configuration not stated", "T. brucei": -19.7, "Leishmania in macrophages": 25.27, "Toxoplasma": -10.62}
{"compound": "CC(O)(CNC(=O)c1c(F)cccc1Cl)c1ccco1", "stereo": "configuration not stated", "T. brucei": -12.45, "Leishmania in macrophages": "4.464 and -43.89", "Toxoplasma": 7.52}
{"compound": "O=C(NCC1CCOC1)c1cc(-c2cccc(Cl)c2)[nH]n1", "stereo": "configuration not stated", "T. brucei": -29.47, "Leishmania in macrophages": 26.84, "Toxoplasma": -5.064}
{"compound": "CCOc1ccc(CC(=O)N2CCCC(n3nc(C)nc3C)C2)cc1", "stereo": "configuration not stated", "T. brucei": -7.926, "Leishmania in macrophages": -3.274, "Toxoplasma": -7.228}
{"compound": "CSCCCN1CCCC1c1noc(C(C)C)n1", "stereo": "configuration not stated", "T. brucei": 13.33, "Leishmania in macrophages": 23.31, "Toxoplasma": 6.055}
{"compound": "O=C(Cn1nc(-c2cccs2)ccc1=O)N1CCCCCC1", "T. brucei": 33.44, "Leishmania in macrophages": 19.93, "Toxoplasma": -1.315}
{"compound": "CN1CCCN(C(=O)NCCNc2cnccn2)CC1", "T. brucei": 6.061, "Leishmania in macrophages": 19.82, "Toxoplasma": 15.34}
{"compound": "Cn1ccnc1CN1CCC2(CC(=O)N(c3cncnc3)C2)C1.O=C(O)C(F)(F)F", "stereo": "configuration not stated", "Leishmania in macrophages": 3.101, "Toxoplasma": -3.819}
{"compound": "CCCc1nc(C)c(C(=O)NCCN2CCOCC2)s1", "Leishmania in macrophages": -7.426, "Toxoplasma": 4.975}
{"compound": "CN(C)C1COC2(CCN(C(=O)c3cccc(Cl)c3)CC2)C1.O=C(O)C(F)(F)F", "stereo": "configuration not stated", "T. brucei": -22.72, "Leishmania in macrophages": 10.24, "Toxoplasma": -11.23}
{"compound": "Cc1cc(C)c2cc(CNCc3ccc(C)o3)c3nn(C)c(=O)n3c2c1", "T. brucei": -8.702, "Leishmania in macrophages": "14.58 and -9.673", "Toxoplasma": -3.306}
{"compound": "O=C(Nc1c(N2CCCC2)cccc1N1CCCC1)c1ccccn1", "Leishmania in macrophages": 56.83, "Toxoplasma": -0.1701}
{"compound": "CCCn1cc(NC(=O)c2ccc(N(C)CC)cc2)ccc1=O", "T. brucei": 6.102, "Leishmania in macrophages": 1.622, "Toxoplasma": 0.5682}
{"compound": "Cn1cc(-c2cnc(N3CCCC3)nc2)cc1C(=O)O", "T. brucei": 12.33, "Leishmania in macrophages": -3.516, "Toxoplasma": -6.676}
{"compound": "OC1(CN2CCCC2)CCCN(Cc2c[nH]c(CC3CCCC3)n2)C1", "stereo": "configuration not stated", "T. brucei": 10.53, "Leishmania in macrophages": -17.64, "Toxoplasma": 6.613}
{"compound": "Cc1ccc(Sc2ccc(CN3CCC4(CCCNC4=O)C3)o2)cc1", "stereo": "configuration not stated", "T. brucei": -4.147, "Leishmania in macrophages": -23.2, "Toxoplasma": -5.11}
{"compound": "CCc1nc(CS(=O)(=O)Cc2noc(C3CC3)n2)cs1", "T. brucei": -26.24, "Leishmania in macrophages": 11.7, "Toxoplasma": -6.242}

Some entries from above, unchanged:

compound,T. brucei,Leishmania in macrophages,Toxoplasma
COc1ncccc1-c1nc(-c2ccccn2)nn1C1CCN(C)CC1,-30.32,22.44,11.89
COc1ccc2c(CN3CCCN(Cc4ccncc4)CC3)n[nH]c2c1,-45.02,5.104,-0.9174
COC[C@@H]1CCC[C@@]12CN(C(=O)C1CCOCC1)CCO2,0.8856,11.33,1.742
CCOCC1CC2(CCN(C(=O)c3ncccn3)CC2)CO1 (configuration not stated),37.65,25.93,-0.5351